From paper doi:10.1101/2024.02.05.579050
Numbering of substitutions follows the chain as printed. No constants are given. Whether binding was seen depends on the method and setting. In cells and extracts the contact can be indirect. Some binding calls cover weakened binding; strength is not graded here. Sequences can lack the tags named with a protein.

T1: FLAG-Rad55 (S. cerevisiae) (UniProt P38953)
T1 sequence: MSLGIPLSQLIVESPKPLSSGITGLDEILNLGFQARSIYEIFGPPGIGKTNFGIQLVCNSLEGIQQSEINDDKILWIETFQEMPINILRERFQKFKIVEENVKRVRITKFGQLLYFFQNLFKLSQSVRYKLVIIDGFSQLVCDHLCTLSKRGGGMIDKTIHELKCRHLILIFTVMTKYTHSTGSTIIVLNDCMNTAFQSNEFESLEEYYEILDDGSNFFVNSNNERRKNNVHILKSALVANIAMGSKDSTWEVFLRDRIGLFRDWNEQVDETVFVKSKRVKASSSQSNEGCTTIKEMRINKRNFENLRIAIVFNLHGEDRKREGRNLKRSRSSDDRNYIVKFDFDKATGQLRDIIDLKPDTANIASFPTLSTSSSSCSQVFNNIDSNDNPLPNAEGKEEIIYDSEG

T2: FLAG-Rad55-S404A (S. cerevisiae) (UniProt P38953)
T2 sequence: T1 sequence with S404A

B1: Rtt107-VSV (protein, UniProt P38850 1-1070)
chain: MSTSLLFEQLNFLILVAAEAELPIAHSTRKLLMDNSCNNCQIYELYNENLKDVKTDKDWFMNKFGPQTVHFVISNTINFPFYKIVYFDLLIPVVSHTWVQDSVKTKRHLRTNMYSPNPFHLLRDCQVYISKSSFNKCEYILYSDLLHLLGGTLVNYISNRTTHVIVQSPQDPIIATVSKLTFGSFSSSSTNKHTEKPLREWKFVYPIWILYHFKMAKPLKGELATLCELDMQDTSEEQLFAKWEEVIGDKQTSSSQLTLHPNKTLFKNHHFAISPDLNFFTPLYWFLKGFIEDLDGKVTPLSFSDDLKSVYQAFPDIDCYIGHSANSPILEKTKSIKPEIHVGNVSWLFYMFALQKFTPVSQCKLIHQPFHAKLFTSKELTVAYTNYFGSQRFYIQRLVEILGGLSTPELTRKNTHLITKSTIGKKFKVAKKWSLDPQNAIIVTNHMWLEQCYMNNSKLNPKDSRFQNFKLDDNMGWNIGQIGMDHSSLPTPKNLSMVTYDTQSISEKPPPTNDQMDQINDNTNVLSKKDGTPISSFENSIDEKIDKLQKISGEVAVTHSGDLERSFVSRPSRASFPVVDSKKSNLQKKDSNSDISMETEVFCEGHEKREEKEFTKPITEYDAPKKQEIREQSRKKNDIDYKKEEEETELQVQLGQRTKREIKTSKKNEKEKETNECHIEVDQMTNEKQGEESTGKLISTEDVTSKKDTDKFSHLFEGLSDNDDHINDEKPAVNSKYTTPKTSQNITSGVDTPTTAQTQVFMPSSGNSRLAKTQAAKRLHTDIESLNEFQKNFKRKRIDSEEISLSQDVERSNNNKELATKAEKILARFNELPNYDLKAVCTGCFHDGFNEVDIEILNQLGIKIFDNIKETDKLNCIFAPKILRTEKFLKSLSFEPLKFALKPEFIIDLLKQIHSKKDKLSQININLFDYEINGINESIISKTKLPTKVFERANIRCINLVNDIPGGVDTIGSVLKAHGIEKINVLRSKKCTFEDIIPNDVSKQENGGIFKYVLIVTKASQVKKFTKLINDRDKNETILIVEWNWCVESIFHLNVDFTSKKNVLYQKKNN
B2: Rad57-HA (protein, UniProt P25301 1-460)
chain: MPRALSIKFDNTYMDLYDELPESKLLYDEEFSYLLDAVRQNGVCVVDFLTLTPKELARLIQRSINEVFRFQQLLVHEYNEKYLEICEKNSISPDNGPECFTTADVAMDELLGGGIFTHGITEIFGESSTGKSQLLMQLALSVQLSEPAGGLGGKCVYITTEGDLPTQRLESMLSSRPAYEKLGITQSNIFTVSCNDLINQEHIINVQLPILLERSKGSIKLVIIDSISHHLRVELQNKSFRESQENKNYLDRMAEKLQILAHDYSLSVVVANQVGDKPLANSPVAHRTYVTDYDYQLGWLVGWKNSTILYRQMNSLLGASSNNDEILSDDEDYMLIERVMSTVNDRNYDFFSKKKPPIIENKTVERNSSSPISRQSKKRKFDYRVPNLGLTWSNHVSTRILLQKSFKASTIIQRGEAHLYKGGDSASFWQVKRTMKVVYSTFAKPGQIAYQITKRGIETA

Key:
[1] = molecular target: T1, FLAG-Rad55 (S. cerevisiae); experiment: co-IP
[2] = molecular target: T2, FLAG-Rad55-S404A (S. cerevisiae); experiment: co-IP

Binder	binding [1]	binding [2]
B1	binds	–
B2	binds	binds
